Laboratory results from US20030224400A1.
These are yes or no findings as the source states them, for the method shown. Some results given as binding are weak or reduced against the parent protein; the word gives no strength.

Amino acid sequences for entries named in this document (tags omitted). A change or cut given only in a name is not applied to a line headed by its entry.
UniProt Q9NS75: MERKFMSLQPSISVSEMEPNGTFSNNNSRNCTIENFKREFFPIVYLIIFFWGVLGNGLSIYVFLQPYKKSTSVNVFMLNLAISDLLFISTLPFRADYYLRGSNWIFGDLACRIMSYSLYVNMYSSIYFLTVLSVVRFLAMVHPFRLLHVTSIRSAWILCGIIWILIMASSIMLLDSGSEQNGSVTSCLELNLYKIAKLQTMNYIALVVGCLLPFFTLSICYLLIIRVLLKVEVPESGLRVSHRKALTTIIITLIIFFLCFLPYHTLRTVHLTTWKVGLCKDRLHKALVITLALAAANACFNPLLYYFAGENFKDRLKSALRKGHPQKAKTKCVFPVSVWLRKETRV

target: HGPRBMY11 (human G-protein coupled receptor BMY11) (human) (UniProt Q9NS75); test: phage display panning on CHO-K1 cells transfected with HGPRBMY11, after preadsorption on alphaVbeta3 integrin and parental cells; binding phage eluted and sequenced

Row | binding | Binder
1 | binds | PLDWGLIPYLHFGSV
2 | binds | THGFGHRVWSVPLRS
3 | binds | LFASSDWSSFPVLVF
